Source: the supplement of paper PMC8326762, “A Small Molecule Inhibitor of Pex3–Pex19 Interaction Disrupts Glycosome Biogenesis and Causes Lethality in Trypanosoma brucei” (Frontiers in Cell and Developmental Biology, 2021)
Counter-ions that a name gives are not always drawn. Some of the results follow. This is a noisy data set.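 Yeast growth was measured as optical density at 600 nm. Two-hybrid strains grew without histidine, so growth depended on Pex3–Pex19 binding. A compound was trypanosome-selective if it reduced growth of the trypanosome-pair strain by over 65% and of the human-pair strain by under 65%.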

Experiments:
[1] = tested on: Saccharomyces cerevisiae HF7c pdr5Δ; assay: general growth inhibition of yeast HF7c pdr5Δ in -Leu -Trp medium, relative to DMSO; higher = stronger general growth inhibition; settings: 100 µM; 24 h
[2] = tested on: human PEX3-PEX19 interaction (yeast two-hybrid); assay: growth inhibition of yeast two-hybrid strain reporting HsPex3-HsPex19 interaction, relative to DMSO; higher = stronger inhibition of human Pex3-Pex19 interaction / growth; settings: 100 µM; 24 h; 3-aminotriazole 10 mM
[3] = tested on: T. brucei Pex3-Pex19 interaction (yeast two-hybrid); assay: growth inhibition of yeast two-hybrid strain reporting TbPex3-TbPex19 interaction, relative to DMSO; higher = stronger inhibition of T. brucei Pex3-Pex19 interaction / growth; settings: 100 µM; 24 h

| Structure (SMILES) | general growth inhibition [1] | growth inhibition [2] | growth inhibition [3] |
| --- | --- | --- | --- |
| CC(=O)OCC(CCn1cnc2cnc(N)nc21)COC(C)=O [Famciclovir] | 31.1% | 11.4% | 48.6% |
| Clc1ccc2c(c1)C(N1CCNCC1)=Nc1ccccc1O2 [Amoxapine] | 41.7% | 39.7% | 62.8% |
| CC(C)[C@H](NC(=O)OCc1ccccc1)C(=O)N[C@H](C=O)Cc1ccccc1 | 26.8% | 4.85% | 29.6% |
| CS(=O)(=O)c1ccc(-n2nc(C(F)(F)F)cc2-c2ccc(F)cc2)cc1 | 33.5% | 15.2% | 32.4% |
| O=c1onc2n1-c1cc(Br)ccc1OC2 | 47.6% | 29.3% | 53.5% |
| NC(CO)C(=O)NNCc1ccc(O)c(O)c1O (configuration not stated) [Benserazide hydrochloride] | 8.98% | 4.85% | 28.1% |
| NC1CCN(O)C1=O (racemic) | 41.1% | 36.1% | 63.6% |
| N#C/C(=C\c1ccc(O)c(O)c1)C(=O)c1ccc(O)c(O)c1 [Tyrphostin AG 538] | 41.2% | 43.3% | 53% |
| CN(C)CCN(Cc1cccs1)c1ccccn1 [Methapyrilene hydrochloride] | 32.4% | 39.6% | 55.9% |
| NCCc1ccc(O)c(O)c1 [Dopamine hydrochloride] | 42.1% | 49.8% | 65.7% |
| CC(C)(C)C(=O)Oc1ccc(S(=O)(=O)Nc2ccccc2C(=O)NCC(=O)O)cc1 [Sivelestat sodium salt hydrate] | 53.7% | 51.8% | 65.9% |
| Clc1cccc(Cl)c1NC1=NCCN1 [Clonidine hydrochloride] | 42.1% | 42.6% | 63.4% |
| N[C@H]1CONC1=O [L-Cycloserine] | 45.3% | 38.2% | 60.8% |
| CN1CCc2cc(Cl)c(O)cc2[C@@H](c2ccccc2)C1 | 33.9% | 39.8% | 64.9% |
| CCCCCCCCCCCCCCCC(=O)OC(CC(=O)O)C[N+](C)(C)C (racemic) [Palmitoyl-DL-Carnitine chloride] | 82.6% | 78.2% | 72.2% |
| CCOC(=O)[C@@H](N)Cc1ccc(O)c(O)c1 [L-Dopa ethyl ester] | 30.4% | 45.3% | 61.2% |
| OC[C@H]1O[C@@H](c2nc3cc(Cl)c(Cl)cc3[nH]2)[C@H](O)[C@@H]1O [D-ribofuranosylbenzimidazole] | 36.7% | 39.8% | 62.1% |
| CCCCCCCC/C=C\CCCCCCCC(=O)NCCc1ccc(O)c(O)c1 [N-Oleoyldopamine] | 37.6% | 24.1% | 54% |
| Nc1nc(OCC2CCCCC2)c2[nH]cnc2n1 | 42.3% | 50% | 67.3% |
| CN1CCC[C@@H]1Cc1c[nH]c2ccc(CCS(=O)(=O)c3ccccc3)cc12 [Eletriptan hydrobromide] | 5.84% | 5.56% | 28.6% |
| CC(C)(CO)Cc1cc(C(C)(C)C)c(O)c(C(C)(C)C)c1 | 50.5% | 32.6% | 35.1% |
| CC(C)NC[C@H](O)COc1cccc2[nH]ccc12 [S(-)-Pindolol] | 27.8% | 43.9% | 59.8% |

| Structure (SMILES) | general growth inhibition [1] | growth inhibition [2] | growth inhibition [3] |
| --- | --- | --- | --- |
| CC(C)(C)c1ccc(C(=O)CCCN2CCC(OC(c3ccccc3)c3ccccc3)CC2)cc1 [Ebastine] | 86.8% | 82.7% | 80.7% |
| CN(C)CCCN1c2ccccc2Sc2ccc(Cl)cc21 [Chlorpromazine hydrochloride] | 29.8% | 30.1% | 57.5% |
| COC(=O)C1=C(C)NC(C)=C([N+](=O)[O-])C1c1ccccc1C(F)(F)F (racemic) | 65.4% | 47.7% | 56.3% |
| O=c1[nH]cc(F)c(=O)[nH]1 [5-Fluorouracil] | 45.3% | 40.7% | 62.8% |
| CC1(C)CCC(NC(=O)[C@@H](N)CCC(=O)O)CC1 | 51.7% | 51.7% | 73.8% |
| CCN1/C(=C/C(C)=O)Sc2ccc(OC)cc21 | 49.9% | 43.1% | 57.1% |
| C[C@@H](c1ncncc1F)[C@](O)(Cn1cncn1)c1ccc(F)cc1F [Voriconazole] | 84.7% | 79.7% | 78.3% |
| CC(Cc1ccccc1)Nc1ncnc2c1ncn2C1OC(CO)C(O)C1O (stereo not drawn) [R(-)-N6-(2-Phenylisopropyl)adenosine] | 13.1% | 10.1% | 34.2% |
| CC(C)(C)c1ccc(/C=C/C(=O)Nc2ccc3c(c2)OCCO3)cc1 | 30.2% | 21.8% | 44.5% |
| Cc1cc(N)c2ccccc2[n+]1CCCCCCCCCC[n+]1c(C)cc(N)c2ccccc21 [Dequalinium chloride hydrate] | 87.2% | 84.8% | 79.1% |
| CCCCCN(CCCCC)C(=O)C(CCC(=O)O)NC(=O)c1ccc(Cl)c(Cl)c1 (configuration not stated) [Lorglumide sodium] | 33.2% | 18.2% | 26% |
| COC(=O)C1=C(C)NC(C)=C(C(=O)OC(C)(C)CN(C)CCC(c2ccccc2)c2ccccc2)C1c1cccc([N+](=O)[O-])c1 (configuration not stated) [Lercanidipine hydrochloride hemihydrate] | 23.2% | 23.7% | 35.5% |
| N[C@@H](Cn1ccc(=O)c(O)c1)C(=O)O [L-Mimosine from Koa hoale seeds] | 53.1% | 51.3% | 67.9% |
| COc1ccc2c(c1)c(CC(=O)O)c(C)n2Cc1ccc(Cl)cc1 [1-(4-Chlorobenzyl)-5-methoxy-2-methylindole-3-acetic acid] | 8.13% | -9.13% | 12.8% |
| CC[C@@H]1C(=O)OC[C@@H]1Cc1cncn1C [Pilocarpine nitrate] | 18.2% | 3.57% | 38% |
| COc1cc2c(CCNC(C)=O)c[nH]c2cc1O [6-Hydroxymelatonin] | 32.5% | 35.3% | 58.2% |
| CN1C(C(=O)Nc2ccccn2)=C(O)c2ccccc2S1(=O)=O [Piroxicam] | 44.5% | 35.1% | 51% |
| O=C(O)COCCN1CCN(C(c2ccccc2)c2ccc(Cl)cc2)CC1 (configuration not stated) [Cetirizine dihydrochloride] | 31.1% | 45.4% | 61% |
| O=c1[nH]c(=S)[nH]c(-c2ccccc2)c1Cc1c(O)ccc2ccccc12 [Cambinol] | 28.6% | 6.75% | 42.3% |
| O=C(Nc1cc(C(F)(F)F)cc(C(F)(F)F)c1)Nc1c(Br)cc(Br)cc1-c1nn[nH]n1 | 17.4% | 10.2% | 36.1% |
| CC1=C(CC(=O)O)c2cc(F)ccc2/C1=C\c1ccc([S+](C)[O-])cc1 (configuration not stated) [Sulindac] | 35.8% | 36.5% | 55.8% |
| O=C(Nc1ccccc1)c1cc([N+](=O)[O-])ccc1Cl | 47.2% | 40.1% | 50% |

| Structure (SMILES) | general growth inhibition [1] | growth inhibition [2] | growth inhibition [3] |
| --- | --- | --- | --- |
| N#CC(=C(/N)Sc1ccccc1N)/C(C#N)=C(/N)Sc1ccccc1N | 63.9% | 46.8% | 54% |
| CC[C@@]1(O)C(=O)OCc2c1cc1n(c2=O)Cc2cc3c(CN(C)C)c(O)ccc3nc2-1 [Topotecan hydrochloride hydrate] | 47.6% | 48.1% | 67.6% |
| Nc1c(S(=O)(=O)O)cc(Nc2ccc(Nc3nc(Cl)nc(Nc4cccc(S(=O)(=O)O)c4)n3)c(S(=O)(=O)O)c2)c2c1C(=O)c1ccccc1C2=O [Reactive Blue 2] | 19.4% | -16.4% | 2.67% |
| CN1CCN2c3ccccc3Cc3ccccc3C2C1 (configuration not stated) [Mianserin hydrochloride] | 40.8% | 37.3% | 64.6% |
| NCCSSCCN [Cystamine dihydrochloride] | 35% | 41.6% | 56.2% |
| NNc1nncc2ccccc12 [Hydralazine hydrochloride] | 28.8% | 47.3% | 62% |
| CO[C@H]1C[C@@H]2CC[C@@H](C)[C@@](O)(O2)C(=O)C(=O)N2CCCC[C@H]2C(=O)O[C@H]([C@H](C)C[C@@H]2CC[C@@H](OC(=O)C(C)(CO)CO)[C@H](OC)C2)CC(=O)[C@H](C)/C=C(\C)[C@@H](O)[C@@H](OC)C(=O)[C@H](C)C[C@H](C)/C=C/C=C/C=C/1C [Temsirolimus] | 73.1% | 61.7% | 61.4% |
| CO/N=C(\C(=O)N[C@@H]1C(=O)N2C(C(=O)O)=C(COC(C)=O)CS[C@H]12)c1csc(N)n1 [Cefotaxime sodium] | 48.7% | 48.2% | 65.6% |
| CN(C)C(=O)[C@H](O)[C@H](Cc1ccccc1)NC(=O)c1cc2cc(Cl)ccc2[nH]1 | 20.3% | 30.9% | 42.7% |
| CCCCCCCC/C=C\CCCCCCCC(=O)NCCO [N-Oleoylethanolamine] | 35.2% | 31.1% | 57.4% |
| CC(=O)NC(C(=O)O)C(C)(C)SN=O (configuration not stated) [S-Nitroso-N-acetylpenicillamine] | 56.4% | 54.1% | 65.2% |
| CC[C@H]1OC(=O)[C@H](C)[C@@H](O[C@H]2C[C@@](C)(OC)[C@@H](O)[C@H](C)O2)[C@H](C)[C@@H](O[C@@H]2O[C@H](C)C[C@H](NC)[C@H]2O)[C@](C)(O)C[C@@H](C)CN(C)[C@H](C)[C@@H](O)[C@]1(C)O | 57.3% | 29.1% | 64.7% |
| O=C(O)c1cc(=O)c2ccccc2[nH]1 [Kynurenic acid] | 32% | 38.9% | 47.7% |
| O=c1[nH]c2cc(Cl)ccc2c(O)c1-c1cccc(Oc2ccccc2)c1 | 40.4% | 11.5% | 43% |
| CN(CC[C@@H](Oc1ccc(C(F)(F)F)cc1)c1ccccc1)CC(=O)[O-].[Li+] | 40.3% | 37.6% | 60.2% |
| CCCCOc1cc(CC2CNC(=O)N2)ccc1OC (configuration not stated) | 49.5% | 44.4% | 62.8% |
| CC(C)(C)NCC(O)c1cc(O)cc(O)c1 (configuration not stated) [Terbutaline hemisulfate] | 45.4% | 33.8% | 62% |
| OC[C@H]1NC[C@@H](O)[C@@H]1O [1,4-Dideoxy-1,4-imino-D-arabinitol] | 36.1% | 43.4% | 60.5% |
| NS(=O)(=O)c1cccc2c1c([N+](=O)[O-])cc1nc(O)c(O)nc12 [NBQX disodium] | 48% | 41.5% | 63.6% |
| O=C(O)C1(C(=O)O)CCC1.[NH2-].[NH2-].[Pt+2] [Carboplatin] | 22% | 39.1% | 49.1% |

Four records drawn at random from those above, as already listed:

| Structure (SMILES) | general growth inhibition [1] | growth inhibition [2] | growth inhibition [3] |
| --- | --- | --- | --- |
| CCCCCN(CCCCC)C(=O)C(CCC(=O)O)NC(=O)c1ccc(Cl)c(Cl)c1 (configuration not stated) [Lorglumide sodium] | 33.2% | 18.2% | 26% |
| CC(C)(C)NCC(O)c1cc(O)cc(O)c1 (configuration not stated) [Terbutaline hemisulfate] | 45.4% | 33.8% | 62% |
| O=C(O)C1(C(=O)O)CCC1.[NH2-].[NH2-].[Pt+2] [Carboplatin] | 22% | 39.1% | 49.1% |
| CN(CC[C@@H](Oc1ccc(C(F)(F)F)cc1)c1ccccc1)CC(=O)[O-].[Li+] | 40.3% | 37.6% | 60.2% |
